# Reference: the supplement of paper PMC7125110
# ± gives the standard error. Many entries were measured with a wide error.
# B1: glmS ribozyme (parent)
# chain: AUAAAAGCGCCAGAACUACAGAAAUGUAGUUGACGAGGAGGAGGUUUAUCGAAUUUUCGGCGGAUGCCUCCAAA
# Variants of: B1
# Test: self-cleavage kobs at 2500 uM GlcN6P; higher = faster cleavage; RNA array
# Conditions: with glucosamine-6-phosphate
# Method in brief: (§1)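 kobs was derived by fitting per-tile medians to one- or two-exponential decays after normalising signals to baseline and to non-cleaving reference variants. Those signals came from barcoded ribozyme variants transcribed in situ by E. coli RNA polymerase on sequenced MiSeq chips, followed through a hybridised Cy3 probe at 37 °C and imaged over ~14 h. Glucosamine-6-phosphate (40 μM to 10 mM) in HEPES/KCl/Mg(OAc)2 buffer was flowed in. Weighted Michaelis–Menten fits across concentrations then gave kcat and KM.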
row,Variant,self-cleavage kobs at 2500 uM GlcN6P [s⁻¹]
1,G7U G13U A15U C50A G51A G60U C67A C71A,2.76e-05 ± 2.4e-05
2,A12G G13C G26U,2.15e-05 ± 2e-05
3,A12C A48C C68U C71G,5.91e-05 ± 3.4e-05
4,U49A C50U C67A C68G C71A,3.82e-05 ± 3e-05
5,C11G C67G C70G,3.4e-05 ± 1.9e-05
6,G59U C68A,2.8e-05 ± 1.8e-05
7,C11U A53G G66A,9.59e-05 ± 4.8e-05
8,A12U A15U U54G C58U,9.95e-05 ± 6e-05
9,A14G U31A G43U U47A C67U,3.9e-05 ± 2.8e-05
10,C16U C34G C67G,3.64e-05 ± 3.6e-05
11,A6C G13U C50G,3.72e-05 ± 2.9e-05
12,A12G U31G C58A,5.81e-05 ± 3.4e-05
13,A15U C16U C61G C70G,2.95e-05 ± 2.8e-05
14,A15G G37U C58A C70A,4.64e-05 ± 2.6e-05
15,A6C U65G,2.72e-05 ± 1.6e-05
16,A33U A42C C58A G59U,4.28e-05 ± 2.4e-05
17,U54C G59A,2.02e-05 ± 1.6e-05
18,U31C A52G C68G U69A,5.46e-05 ± 3.4e-05
19,C50A C70A C71A,3.08e-05 ± 1.7e-05
20,C11U A14U G32A U45G,3.17e-05 ± 2.6e-05
21,C16G U45A C67G,3.82e-05 ± 2.2e-05
22,U30A G32U U56C,2.96e-05 ± 2.2e-05
23,U31A U47G A48G,2.13e-05 ± 1.5e-05
24,A6U A14G U65G,3.22e-05 ± 2.3e-05
25,G7A C50G U54G,3.38e-05 ± 2e-05
26,C50A C67A,2.9e-05 ± 1.5e-05
27,C10A G38A U54A,0.00127 ± 0.001
28,G7U G38A U69C,4.42e-05 ± 3e-05
29,G13A U45C,3.37e-05 ± 1.8e-05
30,U30C C58U C68U,3.72e-05 ± 2.1e-05

# Variants of: B1
# Test: self-cleavage kobs at 640 uM GlcN6P; higher = faster cleavage; RNA array
# Conditions: with glucosamine-6-phosphate
# Method in brief: as §1
row,Variant,self-cleavage kobs at 640 uM GlcN6P [s⁻¹]
1,G37A A52G,2.58e-05 ± 1.5e-05
2,G63U U65A U69A,3.94e-05 ± 2.7e-05
3,G40C U49A G51C C70A,4.21e-05 ± 2.8e-05
4,G59U C68A,2.17e-05 ± 1.5e-05
5,C61A G62C U69A,3.15e-05 ± 2.6e-05
6,C16U C34G C67G,4.58e-05 ± 3.1e-05
7,G40U U45G C67U,1.8e-05 ± 1.7e-05
8,A39U C67G C71A,4.67e-05 ± 2.9e-05
9,C58U C68A,2.58e-05 ± 1.8e-05
10,G29C G32U C67A,4.89e-05 ± 2.5e-05
11,G37C C71U,1.85e-05 ± 1.8e-05
12,U57G C71G,2.27e-05 ± 1.6e-05
13,G37C G63C C68U,4.71e-05 ± 4.5e-05
14,A33U A42C C58A G59U,3.16e-05 ± 2.6e-05
15,U54C G59A,2.73e-05 ± 1.9e-05
16,C50G G51C U54A C68A,5.18e-05 ± 2.9e-05

row,Variant,self-cleavage kobs at 640 uM GlcN6P [s⁻¹]
1,U46G C50G C68G,2.96e-05 ± 2.7e-05
2,U31A A52G C68A,2.17e-05 ± 2.2e-05
3,C50A C70A C71A,3.55e-05 ± 2.8e-05
4,U31A G51U G63A U69C,3.47e-05 ± 3.3e-05
5,U31C A36C G63U C68A,2.22e-05 ± 1.5e-05
6,G29U C61G C71A,2.65e-05 ± 2.1e-05
7,C50A C67A,2.12e-05 ± 1.8e-05
8,G35C U46C C67A,2.55e-05 ± 2.3e-05
9,U47A U49A C61G A64U C67U,3.44e-05 ± 2.7e-05
10,U31A G44A,1.27e-05 ± 1.2e-05
11,C50U C67U,2.8e-05 ± 1.5e-05
12,C50U C61G,1.72e-05 ± 1.7e-05
13,U30A A39G U49A C68G,6.36e-05 ± 3.8e-05
14,U30A C58G G59A C70G,2.07e-05 ± 1.8e-05
15,A52U A64G C68U,2.85e-05 ± 2.5e-05

# Fetched one by one from above, 6 records:
row,Variant,self-cleavage kobs at 640 uM GlcN6P [s⁻¹]
3,C50A C70A C71A,3.55e-05 ± 2.8e-05
10,U31A G44A,1.27e-05 ± 1.2e-05
4,U31A G51U G63A U69C,3.47e-05 ± 3.3e-05
1,U46G C50G C68G,2.96e-05 ± 2.7e-05
13,U30A A39G U49A C68G,6.36e-05 ± 3.8e-05
15,A52U A64G C68U,2.85e-05 ± 2.5e-05

# Variants of: B1
# Test: self-cleavage kobs at 160 uM GlcN6P; higher = faster cleavage; RNA array
# Conditions: with glucosamine-6-phosphate
# Method in brief: as §1
row,Variant,self-cleavage kobs at 160 uM GlcN6P [s⁻¹]
1,G29U C50A G51U C58A,2.99e-05 ± 1.9e-05
2,A53U U65C,1.75e-05 ± 1.6e-05
3,C16G U46C,2.84e-05 ± 2e-05
4,A48U U65G C67A C70A,4.72e-05 ± 2.7e-05
5,U49A C50U C67A C68G C71A,5.48e-05 ± 3.2e-05
6,C11G C67G C70G,4.19e-05 ± 2.1e-05
7,G59U C68A,2.13e-05 ± 2.1e-05
8,C16G C71A,2.84e-05 ± 1.5e-05
9,G32U C67U,1.62e-05 ± 1.5e-05
10,A39C U65A,1.43e-05 ± 9.7e-06
11,G13A C16G,2.34e-05 ± 2.2e-05
12,A12U A64U,2.07e-05 ± 1e-05
13,C16U C34G C67G,0.00011 ± 6.1e-05
14,C11U G29C,2.04e-05 ± 1.6e-05
15,G41C A42G,1.72e-05 ± 1.6e-05
16,G13U C71G,3.58e-05 ± 2.3e-05
17,A33U A42C C58A G59U,1.75e-05 ± 1.4e-05
18,A12G U47A,2.15e-05 ± 1.3e-05
19,C11U G59U,1.87e-05 ± 1.2e-05
20,A48C A53G,2.6e-05 ± 1.5e-05
21,A52C A53U C67U C68U,2.83e-05 ± 2.3e-05
22,A53G U57A,2.97e-05 ± 2.7e-05
23,A15C C50U G51A G62U U69C,2.5e-05 ± 1.7e-05
24,C10A A12U G29A A39G A52G C67G,0.000292 ± 0.00016
25,G41U U47G A53U,2.45e-05 ± 1.6e-05
26,A6U C70U,3.03e-05 ± 1.6e-05
27,G35C U46C C67A,6.44e-05 ± 3.8e-05
28,C50U C67U,1.55e-05 ± 1.4e-05

# Variants of: B1
# Test: self-cleavage kobs at 10000 uM GlcN6P; higher = faster cleavage; RNA array
# Conditions: with glucosamine-6-phosphate
# Method in brief: as §1
row,Variant,self-cleavage kobs at 10000 uM GlcN6P [s⁻¹]
1,U49A C50U C67A C68G C71A,1.87e-05 ± 1.8e-05
2,C50U C67U,1.68e-05 ± 9.4e-06
